Drawing on PMC10127071, this text covers binding for three molecules.

One experiment deals with T1, C1qbp-HA (UniProt O35658).
T1 sequence: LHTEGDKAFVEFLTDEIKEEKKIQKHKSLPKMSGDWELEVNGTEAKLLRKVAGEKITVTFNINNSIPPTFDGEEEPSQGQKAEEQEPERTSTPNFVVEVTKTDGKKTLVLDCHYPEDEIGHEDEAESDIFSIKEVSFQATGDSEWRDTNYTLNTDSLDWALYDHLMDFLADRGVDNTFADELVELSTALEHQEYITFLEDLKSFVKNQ
Briefly: co-IP; reciprocal co-immunoprecipitation from transiently transfected cells lysed in RIPA buffer, protein A/G beads, Western blotting; rabbit normal IgG as control. (In western blotting, separated proteins are transferred to a membrane and probed.)

The next experiment deals with Rsrc1-161aa-eGFP (mouse). The experiment is described as above.
The target of a further experiment is Rsrc1-161aa-HA (mouse). As to the kind of experiment: proximity ligation; in situ PLA (Duolink) in fixed GC-1 spg cells transiently transfected with Rsrc1-161aa-HA; mouse anti-HA and rabbit anti-C1qbp; no primary antibody as negative control.

These are yes or no findings as the source states them, for the method shown. In cells and extracts the contact can be indirect. Binding can be weak; no strength is given. For part of these data: Tags and fused reporters may be left off the sequences shown.

With Rsrc1-161aa-eGFP (mouse), in the experiment with C1qbp-HA, the binding entry was “binds”.

B1: C1qbp-HA (protein, UniProt O35658 71-278)
chain: T1 sequence
For B1, the binding entry with Rsrc1-161aa-eGFP (mouse) is on record as “binds”.

B2: Complement component 1, q subcomponent binding protein (protein, UniProt O35658 71-278)
chain: T1 sequence
Take B2: the binding result with Rsrc1-161aa-HA (mouse) is recorded as “binds”.
